Data on 11 sequences can be found in patent US20210292760.

By UniProt entry, the sequences of proteins in these tests, tags left out. Where a name states a change or a piece, a line headed by the entry shows the natural chain unless it says otherwise.
UniProt Q04609: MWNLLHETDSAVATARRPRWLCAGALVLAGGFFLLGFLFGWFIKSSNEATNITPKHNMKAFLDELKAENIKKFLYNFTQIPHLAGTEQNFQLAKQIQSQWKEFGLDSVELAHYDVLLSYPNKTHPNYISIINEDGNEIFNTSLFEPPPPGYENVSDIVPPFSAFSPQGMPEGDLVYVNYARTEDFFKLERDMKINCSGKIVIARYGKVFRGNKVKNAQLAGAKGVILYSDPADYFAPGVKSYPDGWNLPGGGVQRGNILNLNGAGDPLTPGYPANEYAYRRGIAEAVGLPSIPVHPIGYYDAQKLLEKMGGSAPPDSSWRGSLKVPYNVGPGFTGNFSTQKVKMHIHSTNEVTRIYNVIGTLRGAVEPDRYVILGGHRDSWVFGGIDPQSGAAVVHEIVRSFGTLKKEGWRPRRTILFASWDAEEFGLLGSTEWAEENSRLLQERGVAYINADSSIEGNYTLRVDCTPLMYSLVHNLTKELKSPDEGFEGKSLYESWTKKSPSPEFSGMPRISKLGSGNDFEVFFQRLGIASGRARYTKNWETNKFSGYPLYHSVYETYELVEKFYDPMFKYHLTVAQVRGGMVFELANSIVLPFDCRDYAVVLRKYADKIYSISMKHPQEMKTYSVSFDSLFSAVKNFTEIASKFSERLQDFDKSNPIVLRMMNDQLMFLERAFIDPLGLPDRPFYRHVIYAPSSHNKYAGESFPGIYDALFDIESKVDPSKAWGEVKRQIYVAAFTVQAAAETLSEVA

The target of data set [1] is PSMA (prostate-specific membrane antigen, FOLH1) (Homo sapiens) (UniProt Q04609). The data set is described as follows: flow cytometry. To be noted: LNCaP, protein on the cell surface, protein details: endogenous on LNCaP cells (ATCC CRL-1740), label: 5'-Biotin-TEG. On the technique in general: In flow cytometry, cells or beads pass a laser one at a time.
Data set [2] deals with CD3 (TCR/CD3 complex) (Homo sapiens). The data set is described as follows: flow cytometry. To be noted: protein on the cell surface, protein details: endogenous on Jurkat cells (ATCC TIB-152).
[3] abbreviates: 2'-F RNA part, triazole click linkage A10 3'-end to 5'-end of anti-CD3 aptamer, signal superior to A10 monomer, reduced PC-3 binding, variant of A10.
[4] abbreviates: 2'-F RNA part, triazole click linkage A10 3'-end to 5'-end of anti-CD3 aptamer, Jurkat, dose-dependent, signal lower than anti-CD3 monomer, Ramos binding strongly reduced, label: 5'-Biotin-TEG, variant of A10.
[5] abbreviates: 2'-F RNA, triazole click linkage A10 3'-end to 5'-end of anti-CD3 aptamer, signal superior to A10 monomer, reduced PC-3 binding, DPBS 5% FBS, 37C, 40-50% LNCaP killing with PBMC at 100 nM for the RNA/RNA bispecifics (p77), variant of A10.
Where [6] appears, read: 2'-F RNA, triazole click linkage A10 3'-end to 5'-end of anti-CD3 aptamer, Jurkat, dose-dependent, signal lower than anti-CD3 monomer, Ramos binding strongly reduced, label: 5'-Biotin-TEG, variant of A10.
Where [7] appears, read: 5'-alkyne (for dimerization), Jurkat, residual binding to CD3-negative Ramos only at highest concentration, 37C, label: biotin, single-stranded DNA.
[8] abbreviates: 2'-F RNA (2'-deoxy-2'-fluoro-thymidine-modified as stated), 5'-alkyne (for dimerization), Jurkat, residual binding to CD3-negative Ramos only at highest concentration, 37C, label: biotin.

At least one result comes from cells or an extract, where the contact may be indirect. For some assays here: A negative result means that nothing was seen under these conditions. The exact form of at least one protein or probe is not confirmed.

Regarding “GGGAGGACGAUGCGGAUCAGCCAUGUUUACGUCACUCCU [A10]”, the binding result in data set [1] (2'-F RNA, 3'-azide, dose-dependent 30-300 nM, no saturation, residual binding to PSMA-negative PC-3 only at highest concentration, 37C, 5% FBS) was “binds”; in data set [2] (2'-F RNA, 3'-azide, A10 did not bind Jurkat or Ramos cells, label: 5'-Biotin-TEG), “no binding”.
Regarding “GGGAGGACGAUGCGGAUCAGCCAUGUUUACGUCACUCCUGGGTTTGGCATCGGGCCTGGC [A10xCELTIC_core bispecific]”, the binding result in data set [1] (setting [3]) and in data set [2] (setting [4]) was “binds” in each case.
As to “GGGAGGACGAUGCGGAUCAGCCAUGUUUACGUCACUCCUTACCGCGGGGATTGGCTCCGGGCCTGGCGTCGTAATCTGA [A10xCELTIC_19s bispecific]”, the binding result in data set [1] (setting [3]) and in data set [2] (setting [4]) was “binds” each time.
On to “GGGAGGACGAUGCGGAUCAGCCAUGUUUACGUCACUCCUTTTCCGGGTGGGGGTTTGGCACCGGGCCTGGCGCAGGGATTCG [A10xCELTIC_1s bispecific]”, for which the binding result in data set [1] (setting [3]) and in data set [2] (setting [4]) was “binds” each time.
“GGGAGGACGAUGCGGAUCAGCCAUGUUUACGUCACUCCUUAUAGACUUUAAUGUCUCAUUUUCGCAGCGAUUCUUGUUUAUUUAACAUA [A10xARACD3-3700006 bispecific]”: the binding result in data set [1] (setting [5]) and in data set [2] (setting [6]) was “binds” throughout.
In the case of “GGGAGGACGAUGCGGAUCAGCCAUGUUUACGUCACUCCUUCUAAGCAAUAUUGUUUGCUUUUGCAGCGAUUCUGUUUCGAUAUAUUA [A10xARACD3-0010209 bispecific]”, the binding result in data set [1] (setting [5]) and in data set [2] (setting [6]) was “binds” throughout.
GGGTTTGGCATCGGGCCTGGC [CELTIC_core]: in data set [2] (setting [7]), the binding result is on record as “binds”.
Take “TACCGCGGGGATTGGCTCCGGGCCTGGCGTCGTAATCTGA [CELTIC_19s]”: the binding result in data set [2] (setting [7]) is listed as “binds”.
Take “TTTCCGGGTGGGGGTTTGGCACCGGGCCTGGCGCAGGGATTCG [CELTIC_1s]”: in data set [2] (setting [7]), the binding result is recorded as “binds”.
For the sequence “UAUAGACUUUAAUGUCUCAUUUUCGCAGCGAUUCUUGUUUAUUUAACAUA [ARACD3-3700006]”, the binding result in data set [2] (setting [8]) is given as “binds”.
As to “UCUAAGCAAUAUUGUUUGCUUUUGCAGCGAUUCUGUUUCGAUAUAUUA [ARACD3-0010209]”, the binding result in data set [2] (setting [8]) was “binds”.
